{"sequences": {"note": "Sequences of proteins named here, by UniProt entry; tags and fusion partners are left off.", "UniProt A0A0H3G0N3": "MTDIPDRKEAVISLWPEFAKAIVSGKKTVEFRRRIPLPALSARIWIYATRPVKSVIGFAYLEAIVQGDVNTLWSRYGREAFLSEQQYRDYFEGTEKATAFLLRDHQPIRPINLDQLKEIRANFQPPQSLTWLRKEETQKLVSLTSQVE"}, "source": "paper PMC5615036", "about": "“Crystal structure of an ASCH protein from Zymomonas mobilis and its ribonuclease activity specific for single-stranded RNA”", "target": "ASCH domain-containing protein from Zymomonas mobilis ZM4 (ZmASCH) (Zymomonas mobilis ZM4)", "assay": "SEC; elution profile of the size exclusion step of the recombinant purified protein (Supplementary Fig. 1); both purified", "note": "No constants are given. Whether binding was seen depends on the method and setting.", "data": [{"substance": "ASCH domain-containing protein from Zymomonas mobilis ZM4 (ZmASCH) (from UniProt A0A0H3G0N3 1-148)", "values": [{"measurement": "binding", "value": "no binding"}]}]}
